We go through 42 sequences from publication PMC7819943, “Rice protein-binding microarrays: a tool to detect cis-acting elements near promoter regions in rice”.

The list shows a part of the results.

For the assay, the target named is T1, OsSMF1 (Oryza sativa, UniProt Q6ZLB0 1-436).
T1 sequence: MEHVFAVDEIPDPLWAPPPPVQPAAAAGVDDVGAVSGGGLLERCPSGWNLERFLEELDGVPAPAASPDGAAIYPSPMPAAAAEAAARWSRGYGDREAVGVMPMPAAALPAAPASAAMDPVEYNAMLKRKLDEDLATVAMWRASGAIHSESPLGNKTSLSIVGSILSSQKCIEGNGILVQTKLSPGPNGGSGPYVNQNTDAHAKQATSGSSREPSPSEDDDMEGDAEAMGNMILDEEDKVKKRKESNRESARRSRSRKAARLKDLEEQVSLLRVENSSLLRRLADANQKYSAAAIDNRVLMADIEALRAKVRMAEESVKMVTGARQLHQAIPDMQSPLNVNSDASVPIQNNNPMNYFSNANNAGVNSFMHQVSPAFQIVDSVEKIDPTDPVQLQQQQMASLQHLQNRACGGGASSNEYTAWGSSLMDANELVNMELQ
The assay is described as follows: protein-binding microarray (RPBM); PBS, 2% BSA, 51.3 ng/ul salmon testes DNA, 50 uM zinc acetate, 200 nM TF, 25 C, 1 h; high values mean tight binding. The settings on record: protein: recombinant; tags: N-terminal polyhistidine and DsRed monomer fusion (pET32a); chain copies: 2; label: CyDye5-dUTP incorporated in the synthesized complementary strand; 3' TTTTT single-stranded linker to array surface; dsDNA, one strand shown. Put shortly: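 A custom Agilent array was converted to double-stranded form by primer extension with Cy5-dUTP and blocked with 2% BSA. Protein at 200 nM in PBS with 2% BSA, salmon testes DNA and 50 µM zinc acetate was applied for 1 h at 25 °C, followed by washing. The proteins were polyhistidine–DsRed N-terminal fusions of transcription factors, expressed in E. coli BL21-CodonPlus and Ni–NTA-purified. The binding signal is per-feature fluorescence intensity (arbitrary units) from an Axon 4000B scanner.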
“TACCATCTTTGAACAAATGAAGGACCGCAATGTTGTGTCACGGAGTCACCTAGTGCAG”: the binding signal was 3650 fluorescence intensity (a.u.).
As to “TTCCTAACACCAGTCCACCTCTGCTTGGTCGTCACCAATTCGGAGTCACCTAGTGCAG”, the binding signal is 3410 fluorescence intensity (a.u.).
For the sequence “TGGCGCGACTGCTCGGGTCACCATAAATACGGGTAGGTGGCGGAGTCACCTAGTGCAG”, the binding signal is 3940 fluorescence intensity (a.u.).
As for “AGAGCAGACACACAACCCGTGTCAGCATAGTCGCACACAACGGAGTCACCTAGTGCAG”, the binding signal is 32600 fluorescence intensity (a.u.).
As for “TTCCATATCACTCCAGGTGAGTGACTCATATCAAATAACACGGAGTCACCTAGTGCAG”, the binding signal is 6730 fluorescence intensity (a.u.).
In the case of “CTGTTCGCGGCGTCGCTGGCGTACCTGATGCGGCGGTGGCCGGAGTCACCTAGTGCAG”, the binding signal was 4080 fluorescence intensity (a.u.).
As for “CTCCTAACCACGTCGCATACTTAAACTTAACCACTCGTGACGGAGTCACCTAGTGCAG”, the binding signal is 3320 fluorescence intensity (a.u.).
For “ATTCAGGTTTGGATAGAGTGGAACTTAACATGATGCAGACCGGAGTCACCTAGTGCAG”, the binding signal is 3300 fluorescence intensity (a.u.).
Turning to “AACGCACAAACTTTCTCCAGGTCAGTACGTAAGCCACTTGCGGAGTCACCTAGTGCAG”, the binding signal is 3150 fluorescence intensity (a.u.).
Then “TAATGGAGTGGCAACTATCTTGAAGTGGTAATTAAACTATCGGAGTCACCTAGTGCAG”, with 3160 fluorescence intensity (a.u.).
Then “TTATAGGAAGTAGTTTGCAACGTGGCGTTGCATATAGAGGCGGAGTCACCTAGTGCAG”, with 5930 fluorescence intensity (a.u.).
The figure for “GACCGGGTTTCCCCGTGGCGCCACCACCACCCATGGGCCCCGGAGTCACCTAGTGCAG” is 3680 fluorescence intensity (a.u.); for “ACATATTTCAATGTGTATCTTCACTGTGTTTCATAATTTTCGGAGTCACCTAGTGCAG” it is 23400 fluorescence intensity (a.u.).
In the case of “TTCGCCGGCGGCCCGTCAGGCCGAAAGCGCCACGTGGGCGCGGAGTCACCTAGTGCAG”, the binding signal is 15900 fluorescence intensity (a.u.).
Turning to “CGCGTTACAGGTTTCCAGCACAACCGGTCGGCGTCGTCAGCGGAGTCACCTAGTGCAG”, the binding signal was 4420 fluorescence intensity (a.u.).
On to “TGGTAGCGATCCAATCTGCCTCCGGGCCCTGTCACACTAACGGAGTCACCTAGTGCAG”, for which the binding signal was 3720 fluorescence intensity (a.u.).
Turning to “GTGGTGCGGCCGTGTACACGTCCCCGTGGAGGCCGGCGCCCGGAGTCACCTAGTGCAG”, the binding signal was 4010 fluorescence intensity (a.u.).
Consider “GGTAACCAGGCGTGGCGTACGTGGACCACTCCTTCTCCATCGGAGTCACCTAGTGCAG”, for which the binding signal was 7560 fluorescence intensity (a.u.).
Then “ACTTAGATGATATCATCCTGTCACTGTCACTAGTCCCACTCGGAGTCACCTAGTGCAG”, with 4250 fluorescence intensity (a.u.).
On to “GCGTGTGTATATATTGGTGTGGAGGAGGAGGAGAAAGGGGCGGAGTCACCTAGTGCAG”, for which the binding signal is 4690 fluorescence intensity (a.u.).
The figure for “GAAAAGATTAAACGTTAGTTGTTGGCACGTACTACCGTGGCGGAGTCACCTAGTGCAG” is 3340 fluorescence intensity (a.u.).
Consider “CAAGTGGGGACAGCGCCACGTGCGCGCTCGCTCTTCTCCACGGAGTCACCTAGTGCAG”, for which the binding signal was 11500 fluorescence intensity (a.u.).
On to “TCGCTTCTTCCGACGCCACTTCACCTCTCCTTCCTCCCTCCGGAGTCACCTAGTGCAG”, for which the binding signal was 3180 fluorescence intensity (a.u.).
Take “ATGCGCGATGTGATTTTGCGTGAGCGTGAGGACGTGGGCGCGGAGTCACCTAGTGCAG”: the binding signal is 3500 fluorescence intensity (a.u.).
Turning to “GTCAGTGTCATGTGATACGCGCATTTTCTCCTCTACCCGTCGGAGTCACCTAGTGCAG”, the binding signal is 3840 fluorescence intensity (a.u.).
For the sequence “TTCTGATCTTACTGGGAGACCATCATCAACGTTGTCCAAGCGGAGTCACCTAGTGCAG”, the binding signal is 3860 fluorescence intensity (a.u.).
In the case of “CGCGAAGGACGGGAGCGCGGAGGGGAGCAATGGGTCGGTGCGGAGTCACCTAGTGCAG”, the binding signal was 31100 fluorescence intensity (a.u.).
The figure for “GCCCGTTCGCCGTCTCCAGGATGTCCACGTCGAACCCCACCGGAGTCACCTAGTGCAG” is 9590 fluorescence intensity (a.u.); for “CCCTCTGTATGGACGGCAAGGGCCTAATCGCAATTTTGGCCGGAGTCACCTAGTGCAG” it is 3900 fluorescence intensity (a.u.).
As to “CCATGTCGACGTCCGCGCCGTCCATGTCCCCGTCCTCCGGCGGAGTCACCTAGTGCAG”, the binding signal is 3560 fluorescence intensity (a.u.).
Take “CCAACGCCTGATTCGCTTCTCCATCTGCTTGCATTCAACCCGGAGTCACCTAGTGCAG”: the binding signal was 23400 fluorescence intensity (a.u.).
Then “TCAAGTCATGAATTCTCCTATTTCAAGTCACTTCAGAAGTCGGAGTCACCTAGTGCAG”, with 3330 fluorescence intensity (a.u.); and “ATATAATACGTACATGGAGCCACGTGGCAACCCGGAGCGACGGAGTCACCTAGTGCAG”, with 24700 fluorescence intensity (a.u.).
Consider “ACCGACGCCAACTCAAACCCCTTCGAAAACCTCCTCCTCCCGGAGTCACCTAGTGCAG”, for which the binding signal is 3500 fluorescence intensity (a.u.).
Turning to “TAAGGGACACCGAGAAAACATGAAACTGCCCGAGGACACTCGGAGTCACCTAGTGCAG”, the binding signal was 28800 fluorescence intensity (a.u.).
For “AATTGCACAGTTTAGCTATAAATCGCGAGACGAATCTTTTCGGAGTCACCTAGTGCAG”, the binding signal is 3590 fluorescence intensity (a.u.).
For “AAACAACACTATCAATAGACCTGATCATGCAACCATGGTTCGGAGTCACCTAGTGCAG”, the binding signal was 3420 fluorescence intensity (a.u.).
For “GTGTTCACTCGGTAGACATGACACCGTGCATTGTCGCCACCGGAGTCACCTAGTGCAG”, the binding signal is 5900 fluorescence intensity (a.u.).
As to “TTACGCCGGTACATACATGCACCATGCCACCATTAGCAGGCGGAGTCACCTAGTGCAG”, the binding signal is 3190 fluorescence intensity (a.u.).
On to “AGATAATAATTGCTAGTGGGTGATGATGTGACACACTTACCGGAGTCACCTAGTGCAG”, for which the binding signal was 5580 fluorescence intensity (a.u.).
As to “TAGTTTGCCGCACCCACTGCCCCACTCTAAGTCGGCGGTCCGGAGTCACCTAGTGCAG”, the binding signal is 3540 fluorescence intensity (a.u.).
For “GTCAAGCCCAGCAGCTTCTTCAACAGCAGCAGCAACAGCACGGAGTCACCTAGTGCAG”, the binding signal was 4490 fluorescence intensity (a.u.).
